Results are given in words; binding and its absence hold for the method and conditions named. Binding seen in cells or lysates may run through a third protein.
Biological target: T1, APPL1 (adaptor protein containing pleckstrin homology domain, phosphotyrosine binding domain and leucine zipper motif), wild type (UniProt Q9UKG1)
T1 sequence: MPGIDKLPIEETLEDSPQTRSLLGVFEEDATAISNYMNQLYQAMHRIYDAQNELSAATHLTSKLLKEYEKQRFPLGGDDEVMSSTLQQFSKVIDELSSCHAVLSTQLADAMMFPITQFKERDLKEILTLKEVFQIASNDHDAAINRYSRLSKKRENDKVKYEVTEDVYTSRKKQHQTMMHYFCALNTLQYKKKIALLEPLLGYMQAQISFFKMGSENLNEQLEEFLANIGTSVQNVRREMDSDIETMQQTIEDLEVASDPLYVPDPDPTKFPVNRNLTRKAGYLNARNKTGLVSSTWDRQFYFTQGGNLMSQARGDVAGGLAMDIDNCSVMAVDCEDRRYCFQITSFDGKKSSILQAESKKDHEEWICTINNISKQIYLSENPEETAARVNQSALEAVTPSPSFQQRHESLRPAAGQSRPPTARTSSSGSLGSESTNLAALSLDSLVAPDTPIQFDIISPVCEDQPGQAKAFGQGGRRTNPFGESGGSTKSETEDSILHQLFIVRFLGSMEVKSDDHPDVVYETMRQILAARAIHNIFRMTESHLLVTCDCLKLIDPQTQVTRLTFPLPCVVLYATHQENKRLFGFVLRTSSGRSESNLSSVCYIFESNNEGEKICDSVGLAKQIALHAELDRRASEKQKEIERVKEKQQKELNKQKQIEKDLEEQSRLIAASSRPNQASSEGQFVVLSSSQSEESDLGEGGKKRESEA
Assay: co-IP; lysates of transfected HEK293 cells overexpressing APP (APPwt, APPmv or APP_(AENATA)) and APPL1 (wt or ΔPTB); IP with antibodies against APPL1 or against APP (C1/6.1 or 6E10), immunoblot; 10% of total lysate as input

wild-type human β-amyloid precursor protein, full-length (flAPP) (from UniProt P05067-4 18-695)
binding: no binding

— PMC4721948
